# Measured values from the supplement of paper PMC6411743.
# ± gives the standard deviation of the averaged measurements. The list shows a part of the results.
# Tests used:
# Experiment in all cases: NP40-soluble protein abundance relative to vehicle (solubility fold change) (ratio); higher = more soluble protein in presence of GTP
# [1] = target: T1, UniProt Q14697 and related entries
# T1 sequence (whole entry): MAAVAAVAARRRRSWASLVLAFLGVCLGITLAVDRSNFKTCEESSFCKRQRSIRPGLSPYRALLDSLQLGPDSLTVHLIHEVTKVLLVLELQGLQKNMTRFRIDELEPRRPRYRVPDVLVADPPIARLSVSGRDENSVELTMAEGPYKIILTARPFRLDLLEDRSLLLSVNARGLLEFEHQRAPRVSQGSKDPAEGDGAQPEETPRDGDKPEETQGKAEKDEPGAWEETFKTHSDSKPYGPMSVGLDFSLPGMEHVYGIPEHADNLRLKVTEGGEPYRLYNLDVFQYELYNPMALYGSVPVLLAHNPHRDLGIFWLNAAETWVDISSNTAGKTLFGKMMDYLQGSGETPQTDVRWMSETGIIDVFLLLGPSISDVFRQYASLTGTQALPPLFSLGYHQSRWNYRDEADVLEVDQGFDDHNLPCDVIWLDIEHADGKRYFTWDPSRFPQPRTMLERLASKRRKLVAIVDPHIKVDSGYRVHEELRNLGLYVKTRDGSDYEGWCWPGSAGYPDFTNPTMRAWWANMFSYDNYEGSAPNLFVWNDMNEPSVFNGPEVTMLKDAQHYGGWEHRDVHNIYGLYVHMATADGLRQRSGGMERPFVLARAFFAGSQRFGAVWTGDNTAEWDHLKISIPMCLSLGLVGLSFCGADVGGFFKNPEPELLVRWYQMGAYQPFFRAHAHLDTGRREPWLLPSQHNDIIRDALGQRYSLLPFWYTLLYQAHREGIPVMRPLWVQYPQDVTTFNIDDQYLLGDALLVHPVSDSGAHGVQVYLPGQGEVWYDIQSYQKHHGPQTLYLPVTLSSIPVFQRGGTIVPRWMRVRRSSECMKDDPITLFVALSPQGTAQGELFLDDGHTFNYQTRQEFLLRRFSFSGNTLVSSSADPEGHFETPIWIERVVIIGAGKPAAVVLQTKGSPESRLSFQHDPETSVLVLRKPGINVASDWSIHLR
# Outline: (§1)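 Values are fold changes against the detergent-processed vehicle, based on vsn-normalised intensities. Jurkat crude lysate was treated at eight concentrations from 0.1 to 10 mM (10 min at room temperature, then 3 min at 37 °C), solubilised with 0.8% NP40 and benzonase, ultracentrifuged and analysed by TMT-labelled LC-MS/MS over three independent experiments.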
# [2] = target: T2, UniProt Q15398 and related entries
# T2 sequence (whole entry): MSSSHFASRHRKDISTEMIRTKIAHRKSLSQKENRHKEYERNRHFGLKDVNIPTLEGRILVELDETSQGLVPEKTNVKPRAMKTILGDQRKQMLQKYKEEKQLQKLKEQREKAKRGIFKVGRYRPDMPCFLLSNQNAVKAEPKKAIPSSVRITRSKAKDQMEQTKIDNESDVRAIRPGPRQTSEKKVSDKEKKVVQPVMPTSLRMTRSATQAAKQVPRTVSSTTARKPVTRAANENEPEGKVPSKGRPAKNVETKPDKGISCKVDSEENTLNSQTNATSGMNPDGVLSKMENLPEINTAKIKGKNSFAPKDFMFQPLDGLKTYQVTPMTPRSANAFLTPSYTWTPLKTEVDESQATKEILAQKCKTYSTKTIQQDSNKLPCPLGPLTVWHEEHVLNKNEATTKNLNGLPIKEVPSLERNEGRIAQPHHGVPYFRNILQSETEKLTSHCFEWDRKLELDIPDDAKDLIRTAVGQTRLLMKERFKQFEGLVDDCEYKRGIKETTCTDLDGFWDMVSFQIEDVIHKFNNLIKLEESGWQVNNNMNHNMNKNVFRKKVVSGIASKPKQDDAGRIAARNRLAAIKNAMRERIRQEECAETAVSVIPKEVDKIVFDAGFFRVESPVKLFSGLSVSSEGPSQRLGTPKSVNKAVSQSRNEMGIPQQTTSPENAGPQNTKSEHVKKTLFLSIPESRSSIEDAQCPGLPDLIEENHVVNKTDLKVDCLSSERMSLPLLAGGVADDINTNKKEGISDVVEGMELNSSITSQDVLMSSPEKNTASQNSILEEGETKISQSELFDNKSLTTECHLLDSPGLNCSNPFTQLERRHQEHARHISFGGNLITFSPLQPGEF
# Outline: as §1
# [3] = target: T3, UniProt Q15723 and related entries
# T3 sequence (whole entry): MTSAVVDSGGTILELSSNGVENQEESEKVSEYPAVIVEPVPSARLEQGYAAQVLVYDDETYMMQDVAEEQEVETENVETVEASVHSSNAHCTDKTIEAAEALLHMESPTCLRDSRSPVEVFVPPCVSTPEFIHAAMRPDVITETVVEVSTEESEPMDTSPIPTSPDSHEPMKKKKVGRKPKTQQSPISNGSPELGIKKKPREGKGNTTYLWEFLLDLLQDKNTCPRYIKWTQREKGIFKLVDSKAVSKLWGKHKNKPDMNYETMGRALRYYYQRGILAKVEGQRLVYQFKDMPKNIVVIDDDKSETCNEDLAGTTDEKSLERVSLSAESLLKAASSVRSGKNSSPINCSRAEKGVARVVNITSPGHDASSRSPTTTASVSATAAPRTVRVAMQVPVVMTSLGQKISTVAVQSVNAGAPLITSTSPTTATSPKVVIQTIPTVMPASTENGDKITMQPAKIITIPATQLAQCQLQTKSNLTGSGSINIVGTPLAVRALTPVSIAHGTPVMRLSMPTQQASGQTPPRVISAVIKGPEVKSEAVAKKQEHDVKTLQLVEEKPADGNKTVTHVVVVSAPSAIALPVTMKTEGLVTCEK
# Outline: as §1
# [4] = target: T4, UniProt Q15813 and related entries
# T4 sequence (whole entry): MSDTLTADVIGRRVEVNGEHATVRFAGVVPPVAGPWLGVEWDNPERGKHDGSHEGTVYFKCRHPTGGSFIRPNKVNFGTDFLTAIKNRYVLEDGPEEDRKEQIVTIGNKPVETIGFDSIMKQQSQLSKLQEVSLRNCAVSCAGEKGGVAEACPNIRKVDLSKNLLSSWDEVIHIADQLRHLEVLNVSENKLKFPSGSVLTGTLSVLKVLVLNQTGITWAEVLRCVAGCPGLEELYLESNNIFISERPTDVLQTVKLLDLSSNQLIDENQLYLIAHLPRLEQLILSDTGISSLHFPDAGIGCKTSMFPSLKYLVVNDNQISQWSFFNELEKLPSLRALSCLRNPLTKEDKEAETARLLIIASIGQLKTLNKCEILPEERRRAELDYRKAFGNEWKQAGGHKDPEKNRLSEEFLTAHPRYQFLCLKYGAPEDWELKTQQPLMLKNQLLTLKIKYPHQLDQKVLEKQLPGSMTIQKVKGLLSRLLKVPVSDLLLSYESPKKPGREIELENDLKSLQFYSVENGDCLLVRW
# Outline: as §1
smiles,measurement,setting,value
Nc1nc2c(ncn2[C@@H]2O[C@H](COP(=O)(O)OP(=O)(O)OP(=O)(O)O)[C@@H](O)[C@H]2O)c(=O)[nH]1 [guanosine triphosphate],NP40-soluble protein abundance,[1]; concentration: 0.1mM,1.03 ± 0.062
same,NP40-soluble protein abundance,[1]; concentration: 0.5mM,1.03 ± 0.069
same,NP40-soluble protein abundance,[1]; concentration: 1mM,0.897 ± 0.03
same,NP40-soluble protein abundance,[1]; concentration: 2mM,0.935 ± 0.081
same,NP40-soluble protein abundance,[1]; concentration: 4mM,0.921 ± 0.065
same,NP40-soluble protein abundance,[1]; concentration: 6mM,0.887 ± 0.044
same,NP40-soluble protein abundance,[1]; concentration: 8mM,0.843 ± 0.042
same,NP40-soluble protein abundance,[1]; concentration: 10mM,0.837 ± 0.064
same,NP40-soluble protein abundance,[2]; concentration: 0.1mM,1.02 ± 0.021
same,NP40-soluble protein abundance,[2]; concentration: 0.5mM,0.975 ± 0.026
same,NP40-soluble protein abundance,[2]; concentration: 1mM,0.997 ± 0.032
same,NP40-soluble protein abundance,[2]; concentration: 2mM,0.942 ± 0.022
same,NP40-soluble protein abundance,[2]; concentration: 4mM,0.986 ± 0.042
same,NP40-soluble protein abundance,[2]; concentration: 6mM,0.924 ± 0.032
same,NP40-soluble protein abundance,[2]; concentration: 8mM,0.99 ± 0.029
same,NP40-soluble protein abundance,[2]; concentration: 10mM,0.938 ± 0.032
same,NP40-soluble protein abundance,[3]; concentration: 0.1mM,1.03 ± 0.06
same,NP40-soluble protein abundance,[3]; concentration: 0.5mM,1.07 ± 0.092
same,NP40-soluble protein abundance,[3]; concentration: 1mM,1.09 ± 0.03
same,NP40-soluble protein abundance,[3]; concentration: 2mM,1.01 ± 0.024
same,NP40-soluble protein abundance,[3]; concentration: 4mM,1.01 ± 0.065
same,NP40-soluble protein abundance,[3]; concentration: 6mM,1.08 ± 0.059
same,NP40-soluble protein abundance,[3]; concentration: 8mM,1.066 ± 0.0098
same,NP40-soluble protein abundance,[3]; concentration: 10mM,1.01 ± 0.012
same,NP40-soluble protein abundance,[4]; concentration: 0.1mM,0.982 ± 0.018
same,NP40-soluble protein abundance,[4]; concentration: 0.5mM,0.993 ± 0.039
same,NP40-soluble protein abundance,[4]; concentration: 1mM,0.92 ± 0.052
same,NP40-soluble protein abundance,[4]; concentration: 2mM,0.914 ± 0.038

# Shown tab-delimited: entries from further up
smiles	measurement	setting	value
Nc1nc2c(ncn2[C@@H]2O[C@H](COP(=O)(O)OP(=O)(O)OP(=O)(O)O)[C@@H](O)[C@H]2O)c(=O)[nH]1 [guanosine triphosphate]	NP40-soluble protein abundance	[1]; concentration: 2mM	0.935 ± 0.081
same	NP40-soluble protein abundance	[2]; concentration: 10mM	0.938 ± 0.032
